Assay results from publication PMC7083938.
Results are given in words; binding and its absence hold for the method and conditions named.

Columns and labels:
[1] = target: hRobo3 ectodomain (human) (UniProt Q96MS0); assay: SEC-SAXS; Superose 6 Increase 10/300 in HBS at APS BioCAT beamline 18; molecular weight from the scattering; both purified
[2] = target: hRobo3 ectodomain (human) (UniProt Q96MS0); assay: SEC-MALS; Superose 6 Increase 10/300 in HBS (10 mM HEPES pH 7.2, 150 mM NaCl), Wyatt HELEOS II; both purified
[3] = target: T1, mouse Robo3 ectodomain (mouse) (UniProt Q9Z2I4); assay: SEC; oligomeric state of single purified proteins by elution volume; HBS; both purified
T1 sequence (chain, biotin (NHS-Biotin) where captured on the SA chip for SPR): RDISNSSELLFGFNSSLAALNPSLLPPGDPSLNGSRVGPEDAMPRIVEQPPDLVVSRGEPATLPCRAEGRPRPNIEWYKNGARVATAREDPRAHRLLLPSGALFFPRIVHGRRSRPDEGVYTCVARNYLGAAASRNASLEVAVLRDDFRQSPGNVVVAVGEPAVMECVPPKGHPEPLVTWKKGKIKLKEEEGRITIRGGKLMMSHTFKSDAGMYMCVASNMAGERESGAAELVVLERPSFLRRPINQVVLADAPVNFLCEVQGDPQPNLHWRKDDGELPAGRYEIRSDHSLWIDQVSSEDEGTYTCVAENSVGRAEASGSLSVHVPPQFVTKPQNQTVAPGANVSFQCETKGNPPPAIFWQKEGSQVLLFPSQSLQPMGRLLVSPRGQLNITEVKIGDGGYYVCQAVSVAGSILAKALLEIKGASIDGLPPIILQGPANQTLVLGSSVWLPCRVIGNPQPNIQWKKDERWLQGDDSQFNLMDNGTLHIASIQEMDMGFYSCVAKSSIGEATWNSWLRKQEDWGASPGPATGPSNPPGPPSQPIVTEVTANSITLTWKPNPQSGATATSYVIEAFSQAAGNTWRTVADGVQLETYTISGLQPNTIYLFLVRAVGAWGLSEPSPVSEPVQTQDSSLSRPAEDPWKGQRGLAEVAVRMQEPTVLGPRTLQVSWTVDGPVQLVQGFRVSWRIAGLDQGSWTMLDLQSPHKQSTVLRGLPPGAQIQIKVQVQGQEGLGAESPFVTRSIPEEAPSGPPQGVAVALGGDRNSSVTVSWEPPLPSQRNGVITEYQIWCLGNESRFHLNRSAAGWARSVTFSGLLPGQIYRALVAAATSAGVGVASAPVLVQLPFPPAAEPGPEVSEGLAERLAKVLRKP

[4] = target: T1, mouse Robo3 ectodomain (mouse); assay: AUC; sedimentation velocity, 20 °C, c(s) analysis in SEDFIT; single concentration 2.5 µM mRobo1 and 1.8 µM mRobo3 at 200,000 g, and concentration series (mRobo3 up to 20 µM); both purified
[5] = target: human Robo3 ectodomain (human) (UniProt Q96MS0); assay: SEC-MALS; Wyatt HELEOS II coupled to an AKTA FPLC, Superose Increase 6 10/300, HBS; Zimm model; both purified
[6] = target: human Robo3 ectodomain (human) (UniProt Q96MS0); assay: SAXS; SEC-coupled SAXS, Superose 6 Increase 10/300 in HBS, APS beamline 18 (Bio-CAT); samples injected at 10–30 µM (hRobo3 ectodomain, hNELL2) or ~1 mg protein; molecular weight by the Vc method; both purified

B1: hRobo3 ectodomain (domain or fragment, UniProt Q96MS0 21-891)
chain: GDISNSSELLLGFNSSLAALNHTLLPPGDPSLNGSRVGPEDAMPRIVEQPPDLLVSRGEPATLPCRAEGRPRPNIEWYKNGARVATVREDPRAHRLLLPSGALFFPRIVHGRRARPDEGVYTCVARNYLGAAASRNASLEVAVLRDDFRQSPGNVVVAVGEPAVLECVPPRGHPEPSVSWRKDGARLKEEEGRITIRGGKLMMSHTLKSDAGMYVCVASNMAGERESAAAEVMVLERPSFLRRPVNQVVLADAPVTFLCEVKGDPPPRLRWRKEDGELPTGRYEIRSDHSLWIGHVSAEDEGTYTCVAENSVGRAEASGSLSVHVPPQLVTQPQDQMAAPGESVAFQCETKGNPPPAIFWQKEGSQVLLFPSQSLQPTGRFSVSPRGQLNITAVQRGDAGYYVCQAVSVAGSILAKALLEIKGASLDGLPPVILQGPANQTLVLGSSVWLPCRVTGNPQPSVRWKKDGQWLQGDDLQFKTMANGTLYIANVQEMDMGFYSCVAKSSTGEATWSGWLKMREDWGVSPDPPTEPSSPPGAPSQPVVTEITKNSITLTWKPNPQTGAAVTSYVIEAFSPAAGNTWRTVADGVQLETHTVSGLQPNTIYLFLVRAVGAWGLSEPSPVSEPVRTQDSSPSRPVEDPWRGQQGLAEVAVRLQEPIVLGPRTLQVSWTVDGPVQLVQGFRVSWRVAGPEGGSWTMLDLQSPSQQSTVLRGLPPGTQIQIKVQAQGQEGLGAESLSVTRSIPEEAPSGPPQGVAVALGGDGNSSITVSWEPPLPSQQNGVITEYQIWCLGNESRFHLNRSAAGWARSAMLRGLVPGLLYRTLVAAATSAGVGVPSAPVLVQLPSPPDLEPGLEVGAGLAVRLARVLREP
Which binding [1] does the source give for B1 here?
The binding was “no binding”.

And the binding [2]?
The binding was “no binding”.

B2: mouse Robo3 ectodomain (domain or fragment, UniProt Q9Z2I4 21-891)
chain: T1 sequence (chain, biotin (NHS-Biotin) where captured on the SA chip for SPR)
modifications: biotin (NHS-Biotin) where captured on the SA chip for SPR
For B2, which binding [3] is on record?
The binding was “no binding”.

And the binding [4]?
Its binding is “no binding (tested: 1.8 µM; concentration series up to 20 µM)”.

B3: human Robo3 ectodomain (domain or fragment, UniProt Q96MS0 21-891)
chain: B1 chain
B3 was tested. Which binding [5] did it give?
The binding was “no binding”.

And the binding [6]?
The binding was “no binding (tested: injected at 10–30 µM)”.
